Substitutions are numbered along the chain they refer to. Numbers in names are those of the source. No constants are given. Whether binding was seen depends on the method and setting. For some assays here: In cells and extracts the contact can be indirect. Some results given as binding are weak or reduced against the parent protein; the word gives no strength. For some assays here: Where a sequence is shown, tags or fusion partners need not be part of it. One block for each binder: values may come before it.
How the values were obtained:
FLAG-MFN1^T562D = molecular target: T1, FLAG-MFN1^T562D (UniProt Q8R4Z9); test: co-IP; anti-FLAG immunoprecipitation from lysates of transfected Mfn1-/- or Mfn2-/- MEFs; lysis in CPBS (6 mM CHAPS in PBS pH 7.4); antibody 1:50, 14 hr, 4°C; protein G-coated magnetic beads; SDS-PAGE and immunoblot
T1 sequence: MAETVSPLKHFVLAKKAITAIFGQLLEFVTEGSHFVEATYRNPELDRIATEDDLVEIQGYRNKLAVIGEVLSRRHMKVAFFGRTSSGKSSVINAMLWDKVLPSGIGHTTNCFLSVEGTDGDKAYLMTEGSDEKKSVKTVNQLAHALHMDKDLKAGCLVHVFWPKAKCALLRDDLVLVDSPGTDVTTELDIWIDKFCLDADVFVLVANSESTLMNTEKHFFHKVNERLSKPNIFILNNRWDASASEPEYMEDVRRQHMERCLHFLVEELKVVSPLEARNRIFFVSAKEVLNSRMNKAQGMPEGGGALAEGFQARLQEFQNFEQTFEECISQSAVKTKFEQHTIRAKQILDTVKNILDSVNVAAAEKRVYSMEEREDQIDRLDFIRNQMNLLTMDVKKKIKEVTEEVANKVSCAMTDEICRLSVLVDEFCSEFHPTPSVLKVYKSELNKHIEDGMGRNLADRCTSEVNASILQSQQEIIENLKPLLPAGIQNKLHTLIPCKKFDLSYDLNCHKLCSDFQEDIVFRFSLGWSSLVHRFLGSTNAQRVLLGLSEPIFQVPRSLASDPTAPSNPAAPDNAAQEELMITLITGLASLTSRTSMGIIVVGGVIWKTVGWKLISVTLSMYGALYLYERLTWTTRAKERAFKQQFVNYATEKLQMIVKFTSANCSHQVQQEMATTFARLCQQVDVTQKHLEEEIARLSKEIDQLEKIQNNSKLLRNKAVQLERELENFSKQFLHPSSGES

[1] = molecular target: BAK (mouse (endogenous in MEFs)) (UniProt O08734); test: cross-linking; mitochondria isolated from MEFs (0.5 mg/ml in EB, 25°C) treated with cBID, cross-linked with BMH; SDS-PAGE and anti-BAK immunoblot; cells treated with EGF or expressing MFN1 variants where indicated
[2] = molecular target: MFN1 (wild type) in reconstituted Mfn1-/- MEFs (UniProt Q8R4Z9); test: sucrose-gradient centrifugation; mitochondria from reconstituted Mfn1-/- MEFs homotypically mixed, 1 mM GTP 30 min 25°C, solubilized with 1% digitonin; 5%-20% discontinuous sucrose gradient, 174,000 x g, 12 hr, 4°C; fractions 12-19 immunoblotted
[3] = molecular target: MFN1^T562A in reconstituted Mfn1-/- MEFs (UniProt Q8R4Z9); test: as above
[4] = molecular target: MFN1^T562D in reconstituted Mfn1-/- MEFs (UniProt Q8R4Z9); test: as above

binding (FLAG-MFN1^T562D): binds
binding [1]: binds
B1: BAK (protein, UniProt O08734 1-209)
chain: MASGQGPGPPKVGCDESPSPSEQQVAQDTEEVFRSYVFYLHQQEQETQGAAAPANPEMDNLPLEPNSILGQVGRQLALIGDDINRRYDTEFQNLLEQLQPTAGNAYELFTKIASSLFKSGISWGRVVALLGFGYRLALYVYQRGLTGFLGQVTCFLADIILHHYIARWIAQRGGWVAALNFRRDPILTVMVIFGVVLLGQFVVHRFFRS

binding [2]: binds
B2: MFN1 (wild type) in reconstituted Mfn1-/- MEFs (protein, UniProt Q8R4Z9 1-741)
chain: T1 sequence with D562T

binding [3]: binds
B3: MFN1^T562A in reconstituted Mfn1-/- MEFs (protein, UniProt Q8R4Z9 1-741)
chain: T1 sequence with D562A

binding [4]: binds
B4: MFN1^T562D in reconstituted Mfn1-/- MEFs (protein, UniProt Q8R4Z9 1-741)
chain: T1 sequence
